Experimental data as given in patent US20220370463A1, “STABILIZED C-FMS INTRACELLULAR FRAGMENTS (FICD) PROMOTE OSTEOCLAST DIFFERENTIATION AND ARTHRITIC BONE EROSION” (New York Society for the Relief of the Ruptured and …, priority 2019, published 2022).
These are yes or no findings as the source states them, for the method shown. In cells and extracts the contact can be indirect. Some binding calls cover weakened binding; strength is not graded here. Where a sequence is shown, tags or fusion partners need not be part of it.

How the values were obtained:
[1] = target: T1, DAP5 (eIF4G2), endogenous in mouse BMDMs (mouse) (UniProt Q62448); test: co-immunoprecipitation (discussion of results)
T1 sequence (looked up): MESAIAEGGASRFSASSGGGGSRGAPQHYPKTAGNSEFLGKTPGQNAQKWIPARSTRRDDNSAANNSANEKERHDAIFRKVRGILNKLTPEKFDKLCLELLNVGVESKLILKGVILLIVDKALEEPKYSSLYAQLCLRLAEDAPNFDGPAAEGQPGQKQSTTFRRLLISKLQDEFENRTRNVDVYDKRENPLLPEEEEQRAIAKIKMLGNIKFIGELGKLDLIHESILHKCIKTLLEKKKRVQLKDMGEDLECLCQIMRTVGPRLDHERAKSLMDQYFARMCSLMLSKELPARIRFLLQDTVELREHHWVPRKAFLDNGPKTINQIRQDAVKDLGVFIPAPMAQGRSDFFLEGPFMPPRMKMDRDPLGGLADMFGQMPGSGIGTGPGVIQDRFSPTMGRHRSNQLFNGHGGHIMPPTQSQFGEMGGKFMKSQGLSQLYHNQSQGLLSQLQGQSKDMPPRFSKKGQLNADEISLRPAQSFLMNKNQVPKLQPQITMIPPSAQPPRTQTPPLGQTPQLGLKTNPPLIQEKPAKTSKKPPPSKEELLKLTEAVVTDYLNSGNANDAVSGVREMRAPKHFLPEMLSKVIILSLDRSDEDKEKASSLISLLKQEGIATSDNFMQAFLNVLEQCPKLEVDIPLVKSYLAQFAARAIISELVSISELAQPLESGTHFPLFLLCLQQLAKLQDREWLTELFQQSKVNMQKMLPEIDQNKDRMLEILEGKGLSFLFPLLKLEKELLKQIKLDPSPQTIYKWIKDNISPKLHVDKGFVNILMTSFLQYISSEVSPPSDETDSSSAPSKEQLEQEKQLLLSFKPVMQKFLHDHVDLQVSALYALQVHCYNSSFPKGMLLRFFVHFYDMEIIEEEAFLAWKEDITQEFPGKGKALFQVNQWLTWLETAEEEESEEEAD

[2] = target: T1, DAP5 (eIF4G2), endogenous in mouse BMDMs (mouse); test: co-immunoprecipitation with anti-HA-tag beads from BMDM lysates, immunoblot
[3] = target: T1, DAP5 (eIF4G2), endogenous in mouse BMDMs (mouse); test: co-immunoprecipitation (summary of findings)

Measured: binding

B1: HA-tagged FICD (human CSF1R intracellular domain) expressed in BMDMs of FICDtg^M mice (protein, UniProt P07333 539-972, looked up, not shown: small tags and cut ends)
chain: KYKQKPKYQVRWKIIESYEGNSYTFIDPTQLPYNEKWEFPRNNLQFGKTLGAGAFGKVVEATAFGLGKEDAVLKVAVKMLKSTAHADEKEALMSELKIMSHLGQHENIVNLLGACTHGGPVLVITEYCCYGDLLNFLRRKAEAMLGPSLSPGQDPEGGVDYKNIHLEKKYVRRDSGFSSQGVDTYVEMRPVSTSSNDSFSEQDLDKEDGRPLELRDLLHFSSQVAQGMAFLASKNCIHRDVAARNVLLTNGHVAKIGDFGLARDIMNDSNYIVKGNARLPVKWMAPESIFDCVYTVQSDVWSYGILLWEIFSLGLNPYPGILVNSKFYKLVKDGYQMAQPAFAPKNIYSIMQACWALEPTHRPTFQQICSFLQEQAQEDRRERDYTNLPSSSRSGGSGSSSSELEEESSSEHLTCCEQGDIAQPLLQPNNYQFC
binds: all assays above
